Experimental findings from article PMC13466322 are described below.

By UniProt entry, the sequences of proteins in these tests, tags left out. Where a name states a change or a piece, a line headed by the entry shows the natural chain unless it says otherwise. Residues count along the entry.
UniProt Q6UXG8, residues 35-535: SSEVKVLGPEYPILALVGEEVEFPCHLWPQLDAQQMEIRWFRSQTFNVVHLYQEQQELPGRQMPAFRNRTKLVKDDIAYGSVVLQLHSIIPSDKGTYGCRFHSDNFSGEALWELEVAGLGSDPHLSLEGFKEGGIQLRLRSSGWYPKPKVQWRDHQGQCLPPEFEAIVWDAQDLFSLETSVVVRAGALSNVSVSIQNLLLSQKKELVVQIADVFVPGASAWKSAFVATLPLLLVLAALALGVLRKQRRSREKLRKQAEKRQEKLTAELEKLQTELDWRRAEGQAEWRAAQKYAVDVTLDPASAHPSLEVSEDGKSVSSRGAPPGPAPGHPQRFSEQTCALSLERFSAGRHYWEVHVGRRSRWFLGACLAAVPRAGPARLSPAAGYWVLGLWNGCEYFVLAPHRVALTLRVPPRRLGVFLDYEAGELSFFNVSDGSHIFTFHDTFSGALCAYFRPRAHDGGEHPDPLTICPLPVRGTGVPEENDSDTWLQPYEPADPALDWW

For the assay, the target named is Butyrophilin-like 9 (BTNL9), wild type, FLAG-tagged or AM-tagged (human) (UniProt Q6UXG8). In words: co-IP; A549 and NCI-H460 cells co-infected with lentiviruses for AM-tagged and FLAG-tagged BTNL9, harvested at Day 3; 10 µg anti-FLAG antibody crosslinked to Protein A/G Plus Agarose; 500 µg pre-cleared lysate, overnight at 4 °C; AM-tagged BTNL9 detected by Western blot; IgG immunoprecipitation as negative control. (In western blotting, separated proteins are transferred to a membrane and probed.)

Results are given in words; binding and its absence hold for the method and conditions named. Binding seen in cells or lysates may run through a third protein. Some results given as binding are weak or reduced against the parent protein; the word gives no strength.

On to “Butyrophilin-like 9 (BTNL9), wild type, FLAG-tagged or AM-tagged (from UniProt Q6UXG8-1 35-535)”, for which the binding entry was “binds”.
